{"source": "PubChem BioAssay AID1224830, NIAID – 2016", "test": "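Genes whose knock-down alters the TNF-alpha reporter response to LPS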 (primary screen)", "cell system": "human THP-1 monocytic leukaemia cells, TNF dual-luciferase reporter clone, PMA-differentiated to macrophage-like cells", "knock-down reagent": "siRNA pool against human genes, 50 nM", "time to read-out": "LPS for 4 h, given about 3 days after siRNA transfection", "challenge": "bacterial LPS (TLR4 ligand), 10 ng/ml", "detection": "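Ratio of firefly to renilla light, scaled to the plate median and expressed as a robust z-score per replicate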", "scale": "TNF reporter robust z-score: higher = stronger TNF reporter response to LPS", "active means": "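Each well counts as active if its z-score is over 2.8 or under -1.5; controls are left without a call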", "note": "The deposit covers about 18,000 reagents; this is a random part of them. Over the whole deposit, about 2,900 (16%) got an active call. 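Calls are made per well; low scores hint the gene aids the LPS response, high scores that it dampens it.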 Repeated entries: four replicate wells of each siRNA pool."}
{"Target gene":"PITPNB","TNF reporter robust z-score":0.6,"activity call":"inactive"}
{"Target gene":"PITPNB","TNF reporter robust z-score":0.94,"activity call":"inactive"}
{"Target gene":"PITPNB","TNF reporter robust z-score":1.62,"activity call":"inactive"}
{"Target gene":"PITPNB","TNF reporter robust z-score":0.82,"activity call":"inactive"}
{"Target gene":"NFIX","TNF reporter robust z-score":-0.64,"activity call":"inactive"}
{"Target gene":"NFIX","TNF reporter robust z-score":1.12,"activity call":"inactive"}
{"Target gene":"NFIX","TNF reporter robust z-score":0.23,"activity call":"inactive"}
{"Target gene":"NFIX","TNF reporter robust z-score":0.51,"activity call":"inactive"}
{"Target gene":"FEV","TNF reporter robust z-score":-0.24,"activity call":"inactive"}
{"Target gene":"FEV","TNF reporter robust z-score":-0.21,"activity call":"inactive"}
{"Target gene":"FEV","TNF reporter robust z-score":-0.46,"activity call":"inactive"}
{"Target gene":"FEV","TNF reporter robust z-score":-0.6,"activity call":"inactive"}
{"Target gene":"CCR5","TNF reporter robust z-score":-0.24,"activity call":"inactive"}
{"Target gene":"CCR5","TNF reporter robust z-score":0.13,"activity call":"inactive"}
{"Target gene":"CCR5","TNF reporter robust z-score":0.06,"activity call":"inactive"}
{"Target gene":"CCR5","TNF reporter robust z-score":0.41,"activity call":"inactive"}
{"Target gene":"MUC1","TNF reporter robust z-score":-0.81,"activity call":"inactive"}
{"Target gene":"MUC1","TNF reporter robust z-score":0.09,"activity call":"inactive"}
{"Target gene":"MUC1","TNF reporter robust z-score":-0.35,"activity call":"inactive"}
{"Target gene":"MUC1","TNF reporter robust z-score":-0.07,"activity call":"inactive"}
{"Target gene":"PCYT1B","TNF reporter robust z-score":0.3,"activity call":"inactive"}
{"Target gene":"PCYT1B","TNF reporter robust z-score":0.29,"activity call":"inactive"}
{"Target gene":"PCYT1B","TNF reporter robust z-score":0.75,"activity call":"inactive"}
{"Target gene":"PCYT1B","TNF reporter robust z-score":0.92,"activity call":"inactive"}
{"Target gene":"SRPX","TNF reporter robust z-score":-1.22,"activity call":"inactive"}
{"Target gene":"SRPX","TNF reporter robust z-score":-0.66,"activity call":"inactive"}
{"Target gene":"SRPX","TNF reporter robust z-score":-0.87,"activity call":"inactive"}
{"Target gene":"SRPX","TNF reporter robust z-score":0.09,"activity call":"inactive"}
{"Target gene":"TSSC4","TNF reporter robust z-score":0.13,"activity call":"inactive"}
{"Target gene":"TSSC4","TNF reporter robust z-score":0.71,"activity call":"inactive"}
{"Target gene":"TSSC4","TNF reporter robust z-score":0.45,"activity call":"inactive"}
{"Target gene":"TSSC4","TNF reporter robust z-score":-0.06,"activity call":"inactive"}
{"Target gene":"TM2D3","TNF reporter robust z-score":-0.17,"activity call":"inactive"}
{"Target gene":"TM2D3","TNF reporter robust z-score":-0.26,"activity call":"inactive"}
{"Target gene":"TM2D3","TNF reporter robust z-score":0.25,"activity call":"inactive"}
{"Target gene":"TM2D3","TNF reporter robust z-score":-0.37,"activity call":"inactive"}
{"Target gene":"MALSU1","TNF reporter robust z-score":-0.53,"activity call":"inactive"}
{"Target gene":"MALSU1","TNF reporter robust z-score":-0.67,"activity call":"inactive"}
{"Target gene":"MALSU1","TNF reporter robust z-score":-0.61,"activity call":"inactive"}
{"Target gene":"MALSU1","TNF reporter robust z-score":0.25,"activity call":"inactive"}
{"Target gene":"RNF144B","TNF reporter robust z-score":-0.49,"activity call":"inactive"}
{"Target gene":"RNF144B","TNF reporter robust z-score":-0.21,"activity call":"inactive"}
{"Target gene":"RNF144B","TNF reporter robust z-score":-0.29,"activity call":"inactive"}
{"Target gene":"RNF144B","TNF reporter robust z-score":0.41,"activity call":"inactive"}
{"Target gene":"EEF1A2","TNF reporter robust z-score":0.66,"activity call":"inactive"}
{"Target gene":"EEF1A2","TNF reporter robust z-score":1.11,"activity call":"inactive"}
{"Target gene":"EEF1A2","TNF reporter robust z-score":1.22,"activity call":"inactive"}
{"Target gene":"EEF1A2","TNF reporter robust z-score":0.56,"activity call":"inactive"}
